A word on the IC50: it is the concentration that inhibits the measured activity by half.

Sequences of proteins named here, by UniProt entry; tags and fusion partners are left off.
UniProt O75762, whole entry: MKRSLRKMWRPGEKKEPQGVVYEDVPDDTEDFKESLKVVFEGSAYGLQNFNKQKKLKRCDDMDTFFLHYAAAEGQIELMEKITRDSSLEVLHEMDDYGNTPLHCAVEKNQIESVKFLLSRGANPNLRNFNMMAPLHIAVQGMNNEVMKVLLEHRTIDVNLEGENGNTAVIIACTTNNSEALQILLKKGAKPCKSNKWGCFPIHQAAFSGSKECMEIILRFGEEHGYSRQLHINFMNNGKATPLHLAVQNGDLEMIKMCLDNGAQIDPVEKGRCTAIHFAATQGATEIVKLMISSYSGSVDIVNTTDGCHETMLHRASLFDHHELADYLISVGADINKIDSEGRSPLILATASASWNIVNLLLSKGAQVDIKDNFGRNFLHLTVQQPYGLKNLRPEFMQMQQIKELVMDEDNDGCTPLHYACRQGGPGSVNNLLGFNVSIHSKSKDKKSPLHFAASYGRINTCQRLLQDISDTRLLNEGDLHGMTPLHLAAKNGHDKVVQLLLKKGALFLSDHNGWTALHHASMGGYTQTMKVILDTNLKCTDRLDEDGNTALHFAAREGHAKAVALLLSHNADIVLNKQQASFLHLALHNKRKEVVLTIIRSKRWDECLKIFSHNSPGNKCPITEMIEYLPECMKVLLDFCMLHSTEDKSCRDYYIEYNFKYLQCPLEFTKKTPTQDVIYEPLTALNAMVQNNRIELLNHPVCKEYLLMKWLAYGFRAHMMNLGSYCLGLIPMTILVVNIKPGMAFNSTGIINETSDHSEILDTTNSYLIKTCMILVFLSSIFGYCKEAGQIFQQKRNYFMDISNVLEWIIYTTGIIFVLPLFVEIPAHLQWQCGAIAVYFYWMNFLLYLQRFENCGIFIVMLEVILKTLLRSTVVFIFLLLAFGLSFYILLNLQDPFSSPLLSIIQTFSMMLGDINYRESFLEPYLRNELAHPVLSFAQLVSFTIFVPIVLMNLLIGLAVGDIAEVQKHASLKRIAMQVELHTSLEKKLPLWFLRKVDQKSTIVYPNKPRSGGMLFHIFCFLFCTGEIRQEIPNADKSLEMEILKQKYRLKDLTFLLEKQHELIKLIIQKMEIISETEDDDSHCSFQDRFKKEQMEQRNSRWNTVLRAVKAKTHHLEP

This assay concerns the target TRPA1 channel (Homo sapiens, UniProt O75762). Put plainly: Patch clamp experiments (perforated patch, AITC-activated TRPA1 current). The settings on record: HEK293/TREx cells expressing TRPA1, current activated by 5 μM AITC. From the text: Patch clamp experiments permit the detection of currents through the TRPA1 channel in the cell line described above. To permit recording of current at a stable level and prevent the “rundown” observed by other labs, it is necessary to use the perforated patch technique, which prevents dialysis of the cytoplasm with the pipette solution. In normal whole-cell patch clamp recordings, a glass electrode is brought into contact with a single cell and a high-resistance (gigaohm) seal is established with the cell membrane. The membrane is then ruptured to achieve the whole-cell configuration, permitting control of the voltage of the cell membrane and measurement of currents flowing across the membrane using the amplifier attached to the electrode and resulting in the replacement of cytoplasm with the pipette solution. In contrast, in the perforated patch mode, an antibiotic, amphotericin, is present in the pipette solution and diffuses into contact with the cell after the seal is achieved, over the course of several minutes. The amphotericin forms ion-permeable pores in the membrane under the pipette, permitting passage of some ions but maintaining most native cytosolic components. A perfusion system permits control of the extracellular solution, including the addition of blockers and activators of the current. The current can be activated by addition of 5 μM AITC to the solution.
TRPA1 cells were induced 20-48 hours, removed from growth plates, and replated at low density (to attain good single-cell physical separation) on glass coverslips for measurement. In some cases, cells were grown in low density overnight on glass coverslips. Patch clamp recordings were made in the whole-cell mode with a holding potential of −40 mV. Every 5 seconds, a voltage ramp was applied from −120 to +100 mV, 400 ms in duration. Currents elicited were quantified at −80 mV and +80 mV. The internal solution consisted of 140 mM cesium aspartate, 10 mM EGTA, 2.2 mM CaCl2, 2.08 mM MgCl2 and 10 mM HEPES, pH 7.2, with 50 nM calculated free Ca^2+ and 60 mg/ml amphotericin added immediately prior to experiments. The external solution consisted of 150 mM NaCl, 4.5 mM KCl, 3 mM MgCl2, 10 mM HEPES, 10 mM glutamine, 1 mM EGTA, pH 7.4. Upon addition of AITC, TRPA1 current was induced only in TRPA1-expressing cells and not in parental HEK293 TREx cells. Removal of the AITC stimulus causes most of the current to go away. Potential blockers were tested for ability to block both inward and outward currents in the continued presence of AITC.
IC50 of compounds was estimated by testing each compound at 5 μM and 500 nM. […] IC50 for compounds between 500 nM and 5 μM was similarly estimated. Compounds blocking 50% or more at 500 nM are retested at multiple concentrations, and the % block at each is fitted by standard equations to determine IC50 accurately using a 5-6 point concentration/response experiment. Except where indicated, the IC50 values presented in Tables 1, 2, 3, and 4 were obtained from patch clamp experiments.
In general terms: The patch-clamp technique gives a direct electrical read-out from membranes.

Setting [1] is: read-out: activity as measured in the patch clamp assay (IC50), Table 3, Table 3 compounds.
[2] abbreviates: read-out: activity as measured in the patch clamp assay (IC50), Table 1, Table 1 compounds.

Where two headings read alike, the source gives them in different places. The match of structure and compound is tentative.

As for `Cn1c(=O)c2c(ncn2CC(=O)Nc2nnc(-c3ccc(Cl)cc3)s2)n(C)c1=O`, under setting [1], the IC50 was below 1000 nM.

Take `Cn1c(=O)c2c(ncn2CC(=O)Nc2nc(-c3ccc(F)c(F)c3)cs2)n(C)c1=O`: the 50% inhibitory concentration (IC50) under setting [1] was below 1000 nM.

Take `Cn1c(=O)c2c(ncn2CC(=O)Nc2nc(-c3ccccc3)c(-c3ccccc3)s2)n(C)c1=O`: the IC50 runs as follows: under setting [2], 1000 to 10000 nM; under setting [1], below 1000 nM.

As for `Cn1c(=O)c2c(ncn2CC(=O)Nc2nc(-c3ccc(Cl)cc3)cs2)n(C)c1=O`, under setting [1], the IC50 was below 1000 nM.

For `Cc1ccc(NC(=O)Cn2c(Cl)nc3c2c(=O)n(C)c(=O)n3C)cc1`, the IC50 under setting [1] is below 1000 nM.

Take `CCOc1ccc(-c2csc(NC(=O)Cn3cnc4c3c(=O)n(C)c(=O)n4C)n2)cc1`: the IC50 under setting [1] was below 1000 nM.

`Cn1c(=O)c2c(ncn2CC(=O)Nc2nc(-c3ccc(C(C)(C)C)cc3)cs2)n(C)c1=O`: the 50% inhibitory concentration (IC50) under setting [2] is 1000 to 10000 nM and the concentration for half-maximal inhibition (IC50) under setting [1] is below 1000 nM.

`Cn1c(=O)c2c(ncn2CC(=O)Nc2nc(-c3ccc(C4CCCCC4)cc3)cs2)n(C)c1=O`: the IC50 under setting [1] is below 1000 nM.

As to `Cn1c(=O)c2c(ncn2CC(=O)Nc2nc(-c3ccccn3)cs2)n(C)c1=O`, under setting [1], the IC50 lay within 1000 to 10000 nM.

Consider `Cc1ccc(-c2csc(NC(=O)Cn3cnc4c3c(=O)n(C)c(=O)n4C)n2)o1`, for which, under setting [1], the concentration for half-maximal inhibition (IC50) lay in the range of 1000 to 10000 nM.

On to `Cc1ccc(-c2csc(NC(=O)Cn3cnc4c3c(=O)n(C)c(=O)n4C)n2)cc1`, for which the IC50 under setting [1] is below 1000 nM.

On to `Cn1c(=O)c2c(ncn2CC(=O)Nc2nc(-c3ccc4ccccc4c3)cs2)n(C)c1=O`, for which the IC50 under setting [1] was below 1000 nM.

For the compound `CC(C)c1ccc(-c2csc(NC(=O)Cn3cnc4c3c(=O)n(C)c(=O)n4C)n2)cc1`, the IC50 reads like this: under setting [2], above 10000 nM; under setting [1], below 1000 nM.
